The record followed here is article PMC7819943, “Rice protein-binding microarrays: a tool to detect cis-acting elements near promoter regions in rice”.

Protein sequences, listed by entry. Tags and fused reporters are not part of them.
UniProt Q0JBA9, entry or part of it: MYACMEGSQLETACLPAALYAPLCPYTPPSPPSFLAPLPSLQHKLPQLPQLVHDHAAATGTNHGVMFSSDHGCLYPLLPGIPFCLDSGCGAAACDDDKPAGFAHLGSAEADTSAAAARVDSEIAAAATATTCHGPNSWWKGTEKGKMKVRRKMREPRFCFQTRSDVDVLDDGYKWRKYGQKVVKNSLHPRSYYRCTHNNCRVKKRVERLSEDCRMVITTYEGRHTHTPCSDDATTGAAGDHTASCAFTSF

The list shows a part of the results.

This test concerns the target OsWRKY34 (Oryza sativa, UniProt Q0JBA9 1-250). Put plainly: protein-binding microarray (RPBM); PBS, 2% BSA, 51.3 ng/ul salmon testes DNA, 50 uM zinc acetate, 200 nM TF, 25 C, 1 h; high values mean tight binding. As to conditions: protein: recombinant; tags: N-terminal polyhistidine and DsRed monomer fusion (pET32a); label: CyDye5-dUTP incorporated in the synthesized complementary strand; 3' TTTTT single-stranded linker to array surface; dsDNA, one strand shown. Summed up: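 An Axon 4000B scanner gave the binding signal as per-feature fluorescence intensity in arbitrary units. This followed washing of a custom Agilent array that had been incubated for 1 h at 25 °C with 200 nM protein in PBS, 2% BSA, salmon testes DNA and 50 µM zinc acetate. The proteins were transcription factors fused at the N-terminus to polyhistidine and DsRed, expressed in E. coli BL21-CodonPlus and purified on Ni–NTA.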
On to “CAGGTCAACCGCAATTCTTTCGTCCTCGGTCACTTTTATTCGGAGTCACCTAGTGCAG”, for which the binding signal was 12100 fluorescence intensity (a.u.).

With “CGCATTGATTTTTTTTTCTATTAAACCTGGGGTTAACTTTCGGAGTCACCTAGTGCAG”, the binding signal was 9350 fluorescence intensity (a.u.).

For “GCCGATCTCCATCACCACCTGCGGCCTCCACTGCCCAATCCGGAGTCACCTAGTGCAG”, the binding signal was 10600 fluorescence intensity (a.u.).

On to “TTTGGTCAAAGTCAAACTGCTTCTAGTTTGACTAAATTTACGGAGTCACCTAGTGCAG”, for which the binding signal is 17800 fluorescence intensity (a.u.).

Turning to “TCCTCGCCGCTCCGATTTGTTATCCTCCTCGCACATGTATCGGAGTCACCTAGTGCAG”, the binding signal was 13300 fluorescence intensity (a.u.).

Consider “GCCCTGTGTGTTCACCGCCGCTCAACCATCGCCTCGGCCGCGGAGTCACCTAGTGCAG”, for which the binding signal was 10700 fluorescence intensity (a.u.).

Consider “GCTCCTCCTCCTCTTCCCGCCTCACCGCCGCACCACCTCTCGGAGTCACCTAGTGCAG”, for which the binding signal is 8550 fluorescence intensity (a.u.).

With “GGAGCCAGTAGTTGTCTATACTATTAAACTTGCTTTTATACGGAGTCACCTAGTGCAG”, the binding signal is 8460 fluorescence intensity (a.u.).

For “TCTCTCTCTCTCACTCGCTCGCTTCTCGGGGCGCCTCCTCCGGAGTCACCTAGTGCAG”, the binding signal was 9420 fluorescence intensity (a.u.).

On to “AAAAGGGACCCCATTCTTATTTTTTCCTGTGTTTTGTAATCGGAGTCACCTAGTGCAG”, for which the binding signal was 8560 fluorescence intensity (a.u.).

Turning to “ATGTCCTTATGCCAACCTCCATTTTCCAGCTCAATCTTTTCGGAGTCACCTAGTGCAG”, the binding signal was 9420 fluorescence intensity (a.u.).

For the sequence “GACTCGGCGGCCTCTGCTCCTCCGCTCGTTCCTCTCCCGACGGAGTCACCTAGTGCAG”, the binding signal was 11100 fluorescence intensity (a.u.).

Turning to “CACACTCACATATATATATACACACAAACACACAAGCATACGGAGTCACCTAGTGCAG”, the binding signal is 8050 fluorescence intensity (a.u.).

In the case of “TCCATACCAATCTCATCAACCATGAACCACCCGCGCCCGACGGAGTCACCTAGTGCAG”, the binding signal is 8370 fluorescence intensity (a.u.).

Take “TCCGTTATATATTCTCACCGTATTGTGCATTGGACCTTTTCGGAGTCACCTAGTGCAG”: the binding signal is 11800 fluorescence intensity (a.u.).

As to “ACCGAATTCTATTGTACTCCATCATTTTCTACTAGTTGCGCGGAGTCACCTAGTGCAG”, the binding signal was 10500 fluorescence intensity (a.u.).

With “GCGCCGACTGCCCGTCCGCCCCGTTGCTGCTGTGCGCACTCGGAGTCACCTAGTGCAG”, the binding signal was 8290 fluorescence intensity (a.u.).

Take “GGTTCTGGGTTAAGTATTATAAACTATCACGTGCATGTTTCGGAGTCACCTAGTGCAG”: the binding signal was 8670 fluorescence intensity (a.u.).

Turning to “TTGTATCGTTTTGGTAGGGGATGGGATGTGCTATACGGGGCGGAGTCACCTAGTGCAG”, the binding signal was 11700 fluorescence intensity (a.u.).

As to “GACACACGATTTCTTAAGGCTCATACTTTATGCTTGTCTACGGAGTCACCTAGTGCAG”, the binding signal is 11300 fluorescence intensity (a.u.).

For “CAATCGATTCTCACATCCATCCATCTGCCTATCTATCTCTCGGAGTCACCTAGTGCAG”, the binding signal was 9080 fluorescence intensity (a.u.).

Take “TAGAGGGATGGGCTATTAAGTGTTTTATTTGGTTGGGAGACGGAGTCACCTAGTGCAG”: the binding signal is 15200 fluorescence intensity (a.u.).

Take “TGGTTGGTGGTGGTTAGCTAACACGCGGCATCTTCTCCTCCGGAGTCACCTAGTGCAG”: the binding signal was 8170 fluorescence intensity (a.u.).

On to “TTCCATCCATCGGCTCTGGTGTACATGCATTATCCATATCCGGAGTCACCTAGTGCAG”, for which the binding signal was 8700 fluorescence intensity (a.u.).

In the case of “AGTATATGTTATGGCTTATATATTGTGGACGCATCGTATCCGGAGTCACCTAGTGCAG”, the binding signal is 8420 fluorescence intensity (a.u.).

Regarding “TCAGCCGCATCTCTACTACTACTACTACTACCCTTGCTCTCGGAGTCACCTAGTGCAG”, the binding signal was 10400 fluorescence intensity (a.u.).

Turning to “GGGGTAGTGAGGATAACGTGTGGGTCCGCGCGGGCCCACCCGGAGTCACCTAGTGCAG”, the binding signal was 8230 fluorescence intensity (a.u.).

In the case of “TTCCTCCTCCGGCCACCTCCGCCGGGCGTTGACCCCTACGCGGAGTCACCTAGTGCAG”, the binding signal is 9030 fluorescence intensity (a.u.).

For “TATTGTTTAGTTGGGAAAAAAATTTGGGGTTGGTTGTCACCGGAGTCACCTAGTGCAG”, the binding signal was 10400 fluorescence intensity (a.u.).

Take “CAACCCACTCCGTTTCTCTCTCTTACCTAAGCCGCGTCCTCGGAGTCACCTAGTGCAG”: the binding signal was 9460 fluorescence intensity (a.u.).

For “TTGTTCCATTTCATATTTGCTTCGTATATATAGTCGATTCCGGAGTCACCTAGTGCAG”, the binding signal is 8480 fluorescence intensity (a.u.).

With “TCTGTGTGCTGCTGCCTCTGCAATTCTGAAACCGATCTCCCGGAGTCACCTAGTGCAG”, the binding signal was 9350 fluorescence intensity (a.u.).

For the sequence “GTGGGGTTTCATCGTTCAATGAGTTTATTCATGAACTCTCCGGAGTCACCTAGTGCAG”, the binding signal was 8880 fluorescence intensity (a.u.).

For “TATCCAAGGTTGTCAGTATCCCGATTCGTATCCCAGTATCCGGAGTCACCTAGTGCAG”, the binding signal was 12300 fluorescence intensity (a.u.).

Turning to “ACTTTGCTCCTCTTCATGCCATCGCCGTTGAAGCTAACAACGGAGTCACCTAGTGCAG”, the binding signal is 8640 fluorescence intensity (a.u.).

For “AGGTGATGTTTGGGGTCGTTGGGTTGGTCCGCGTTCTTGCCGGAGTCACCTAGTGCAG”, the binding signal is 17400 fluorescence intensity (a.u.).

For the sequence “ATGTCGCTTTCCCACCTCTGCCCACCCTCACATGCCCCGTCGGAGTCACCTAGTGCAG”, the binding signal was 8640 fluorescence intensity (a.u.).

Consider “CCTCCCCGCATCCGGCCTCTGTCTTCGCCGCGCATGGCGGCGGAGTCACCTAGTGCAG”, for which the binding signal was 9600 fluorescence intensity (a.u.).

On to “GGGTTAGCAATTCTCTAGAGTTTTTTTTCCTTTCGGCATACGGAGTCACCTAGTGCAG”, for which the binding signal was 9880 fluorescence intensity (a.u.).

Take “GTAAGGGAGAGGGAGGGGTCATACCAACGTCCTTAAAAAACGGAGTCACCTAGTGCAG”: the binding signal is 10000 fluorescence intensity (a.u.).

For the sequence “CACTGGGTGTACTGGCTCGGTCCCTTCATCGGCGCCGGCCCGGAGTCACCTAGTGCAG”, the binding signal is 8420 fluorescence intensity (a.u.).

On to “ACTTAGATTTTGCTCGTTGCTTTCAATCTCCATTACTGCTCGGAGTCACCTAGTGCAG”, for which the binding signal was 9280 fluorescence intensity (a.u.).
